From the supplement of paper PMC10849652 come the findings set out here.

Protein sequences, listed by entry. Tags and fused reporters are not part of them. Lines headed by an entry give the natural chain unless they say otherwise; changes in a name come on top.
UniProt P58557: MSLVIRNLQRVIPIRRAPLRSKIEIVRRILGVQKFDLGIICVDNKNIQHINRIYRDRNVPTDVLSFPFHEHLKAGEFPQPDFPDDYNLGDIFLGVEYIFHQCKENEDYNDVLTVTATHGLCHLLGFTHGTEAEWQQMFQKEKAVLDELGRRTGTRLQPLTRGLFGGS
UniProt P23025: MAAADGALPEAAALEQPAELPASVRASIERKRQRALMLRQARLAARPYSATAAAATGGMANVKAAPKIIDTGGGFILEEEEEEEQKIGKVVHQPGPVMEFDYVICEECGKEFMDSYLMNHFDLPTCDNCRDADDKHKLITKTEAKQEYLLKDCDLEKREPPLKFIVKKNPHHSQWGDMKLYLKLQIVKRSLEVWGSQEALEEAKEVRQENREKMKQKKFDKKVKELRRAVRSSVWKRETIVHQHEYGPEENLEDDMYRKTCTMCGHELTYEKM
UniProt Q9H5J0: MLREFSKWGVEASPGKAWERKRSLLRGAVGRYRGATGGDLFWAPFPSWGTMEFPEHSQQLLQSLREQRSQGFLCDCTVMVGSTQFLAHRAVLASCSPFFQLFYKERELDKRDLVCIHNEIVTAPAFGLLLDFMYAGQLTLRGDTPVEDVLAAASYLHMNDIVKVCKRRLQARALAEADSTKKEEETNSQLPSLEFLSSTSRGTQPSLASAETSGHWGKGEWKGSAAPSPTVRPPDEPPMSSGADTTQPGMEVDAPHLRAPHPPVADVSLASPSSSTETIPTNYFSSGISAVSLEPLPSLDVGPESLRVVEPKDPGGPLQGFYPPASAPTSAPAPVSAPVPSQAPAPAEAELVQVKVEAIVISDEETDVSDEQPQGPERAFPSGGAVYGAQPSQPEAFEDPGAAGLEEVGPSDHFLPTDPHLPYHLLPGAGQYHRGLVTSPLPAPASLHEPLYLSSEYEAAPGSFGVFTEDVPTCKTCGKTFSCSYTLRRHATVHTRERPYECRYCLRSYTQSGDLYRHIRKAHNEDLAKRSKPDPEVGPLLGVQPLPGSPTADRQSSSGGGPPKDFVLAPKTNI
UniProt Q9NXF8: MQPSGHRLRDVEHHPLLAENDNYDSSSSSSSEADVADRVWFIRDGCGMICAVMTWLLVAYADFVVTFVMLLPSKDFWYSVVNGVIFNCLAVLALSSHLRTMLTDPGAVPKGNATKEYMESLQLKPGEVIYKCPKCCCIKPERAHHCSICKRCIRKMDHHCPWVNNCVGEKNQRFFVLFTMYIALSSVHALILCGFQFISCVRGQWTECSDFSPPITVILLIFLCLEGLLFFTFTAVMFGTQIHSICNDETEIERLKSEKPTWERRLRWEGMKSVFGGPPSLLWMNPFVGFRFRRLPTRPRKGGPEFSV
UniProt Q01831: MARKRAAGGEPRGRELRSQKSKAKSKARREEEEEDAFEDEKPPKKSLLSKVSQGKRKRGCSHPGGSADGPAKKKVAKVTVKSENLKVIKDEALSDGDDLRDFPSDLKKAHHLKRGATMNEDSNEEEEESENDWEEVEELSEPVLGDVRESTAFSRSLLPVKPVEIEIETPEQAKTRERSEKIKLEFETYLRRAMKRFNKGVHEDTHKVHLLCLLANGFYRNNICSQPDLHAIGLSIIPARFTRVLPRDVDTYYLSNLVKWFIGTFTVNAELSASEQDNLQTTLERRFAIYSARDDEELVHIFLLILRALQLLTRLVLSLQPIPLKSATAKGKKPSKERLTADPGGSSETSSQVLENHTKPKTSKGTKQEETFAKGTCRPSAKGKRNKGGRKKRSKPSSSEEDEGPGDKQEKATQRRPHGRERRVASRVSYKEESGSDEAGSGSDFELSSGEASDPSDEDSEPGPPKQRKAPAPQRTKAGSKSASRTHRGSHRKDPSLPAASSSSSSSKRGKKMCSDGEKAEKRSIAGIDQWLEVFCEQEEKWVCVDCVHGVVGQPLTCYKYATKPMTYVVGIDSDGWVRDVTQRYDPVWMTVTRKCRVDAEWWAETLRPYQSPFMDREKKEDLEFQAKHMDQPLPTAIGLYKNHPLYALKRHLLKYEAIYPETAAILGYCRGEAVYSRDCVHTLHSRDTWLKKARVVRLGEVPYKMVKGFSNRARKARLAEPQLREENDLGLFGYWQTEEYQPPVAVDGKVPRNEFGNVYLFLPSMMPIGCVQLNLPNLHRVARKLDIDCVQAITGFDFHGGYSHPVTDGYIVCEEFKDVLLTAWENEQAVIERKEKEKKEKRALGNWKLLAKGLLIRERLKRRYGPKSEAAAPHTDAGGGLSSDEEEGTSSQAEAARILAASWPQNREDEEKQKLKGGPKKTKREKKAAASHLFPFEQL
UniProt Q96GY0: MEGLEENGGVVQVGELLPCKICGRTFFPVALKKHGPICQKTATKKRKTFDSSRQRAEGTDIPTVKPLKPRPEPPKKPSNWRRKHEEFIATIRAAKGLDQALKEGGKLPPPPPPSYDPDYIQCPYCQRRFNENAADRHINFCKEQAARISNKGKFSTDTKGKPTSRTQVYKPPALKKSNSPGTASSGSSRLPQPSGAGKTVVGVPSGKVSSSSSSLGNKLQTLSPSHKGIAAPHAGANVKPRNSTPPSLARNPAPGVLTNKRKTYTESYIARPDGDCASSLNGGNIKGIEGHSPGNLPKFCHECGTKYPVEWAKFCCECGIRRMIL
UniProt O95070: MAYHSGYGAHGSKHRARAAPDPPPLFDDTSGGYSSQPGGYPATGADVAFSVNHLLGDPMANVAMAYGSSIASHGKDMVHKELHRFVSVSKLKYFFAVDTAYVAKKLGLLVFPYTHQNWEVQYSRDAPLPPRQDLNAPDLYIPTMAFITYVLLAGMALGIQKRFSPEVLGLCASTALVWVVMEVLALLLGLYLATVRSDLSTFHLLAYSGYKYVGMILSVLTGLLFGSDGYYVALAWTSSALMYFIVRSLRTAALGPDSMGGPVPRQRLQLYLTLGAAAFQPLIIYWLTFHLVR
UniProt P07947, whole entry, looked up: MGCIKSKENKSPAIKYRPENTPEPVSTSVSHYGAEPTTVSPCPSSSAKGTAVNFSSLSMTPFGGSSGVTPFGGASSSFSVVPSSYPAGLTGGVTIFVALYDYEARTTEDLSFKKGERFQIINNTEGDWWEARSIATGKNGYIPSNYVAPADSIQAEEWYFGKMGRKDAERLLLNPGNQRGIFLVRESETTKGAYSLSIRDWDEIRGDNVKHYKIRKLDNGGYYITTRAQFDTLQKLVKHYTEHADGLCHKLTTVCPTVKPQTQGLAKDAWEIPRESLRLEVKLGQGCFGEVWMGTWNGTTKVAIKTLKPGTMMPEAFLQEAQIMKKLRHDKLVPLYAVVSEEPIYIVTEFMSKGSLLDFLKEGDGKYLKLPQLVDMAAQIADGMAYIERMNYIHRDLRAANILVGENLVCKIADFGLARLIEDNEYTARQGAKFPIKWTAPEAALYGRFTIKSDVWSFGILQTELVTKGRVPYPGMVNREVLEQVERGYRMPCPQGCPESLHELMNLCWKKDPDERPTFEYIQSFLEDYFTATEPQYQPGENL
UniProt Q8IZH2: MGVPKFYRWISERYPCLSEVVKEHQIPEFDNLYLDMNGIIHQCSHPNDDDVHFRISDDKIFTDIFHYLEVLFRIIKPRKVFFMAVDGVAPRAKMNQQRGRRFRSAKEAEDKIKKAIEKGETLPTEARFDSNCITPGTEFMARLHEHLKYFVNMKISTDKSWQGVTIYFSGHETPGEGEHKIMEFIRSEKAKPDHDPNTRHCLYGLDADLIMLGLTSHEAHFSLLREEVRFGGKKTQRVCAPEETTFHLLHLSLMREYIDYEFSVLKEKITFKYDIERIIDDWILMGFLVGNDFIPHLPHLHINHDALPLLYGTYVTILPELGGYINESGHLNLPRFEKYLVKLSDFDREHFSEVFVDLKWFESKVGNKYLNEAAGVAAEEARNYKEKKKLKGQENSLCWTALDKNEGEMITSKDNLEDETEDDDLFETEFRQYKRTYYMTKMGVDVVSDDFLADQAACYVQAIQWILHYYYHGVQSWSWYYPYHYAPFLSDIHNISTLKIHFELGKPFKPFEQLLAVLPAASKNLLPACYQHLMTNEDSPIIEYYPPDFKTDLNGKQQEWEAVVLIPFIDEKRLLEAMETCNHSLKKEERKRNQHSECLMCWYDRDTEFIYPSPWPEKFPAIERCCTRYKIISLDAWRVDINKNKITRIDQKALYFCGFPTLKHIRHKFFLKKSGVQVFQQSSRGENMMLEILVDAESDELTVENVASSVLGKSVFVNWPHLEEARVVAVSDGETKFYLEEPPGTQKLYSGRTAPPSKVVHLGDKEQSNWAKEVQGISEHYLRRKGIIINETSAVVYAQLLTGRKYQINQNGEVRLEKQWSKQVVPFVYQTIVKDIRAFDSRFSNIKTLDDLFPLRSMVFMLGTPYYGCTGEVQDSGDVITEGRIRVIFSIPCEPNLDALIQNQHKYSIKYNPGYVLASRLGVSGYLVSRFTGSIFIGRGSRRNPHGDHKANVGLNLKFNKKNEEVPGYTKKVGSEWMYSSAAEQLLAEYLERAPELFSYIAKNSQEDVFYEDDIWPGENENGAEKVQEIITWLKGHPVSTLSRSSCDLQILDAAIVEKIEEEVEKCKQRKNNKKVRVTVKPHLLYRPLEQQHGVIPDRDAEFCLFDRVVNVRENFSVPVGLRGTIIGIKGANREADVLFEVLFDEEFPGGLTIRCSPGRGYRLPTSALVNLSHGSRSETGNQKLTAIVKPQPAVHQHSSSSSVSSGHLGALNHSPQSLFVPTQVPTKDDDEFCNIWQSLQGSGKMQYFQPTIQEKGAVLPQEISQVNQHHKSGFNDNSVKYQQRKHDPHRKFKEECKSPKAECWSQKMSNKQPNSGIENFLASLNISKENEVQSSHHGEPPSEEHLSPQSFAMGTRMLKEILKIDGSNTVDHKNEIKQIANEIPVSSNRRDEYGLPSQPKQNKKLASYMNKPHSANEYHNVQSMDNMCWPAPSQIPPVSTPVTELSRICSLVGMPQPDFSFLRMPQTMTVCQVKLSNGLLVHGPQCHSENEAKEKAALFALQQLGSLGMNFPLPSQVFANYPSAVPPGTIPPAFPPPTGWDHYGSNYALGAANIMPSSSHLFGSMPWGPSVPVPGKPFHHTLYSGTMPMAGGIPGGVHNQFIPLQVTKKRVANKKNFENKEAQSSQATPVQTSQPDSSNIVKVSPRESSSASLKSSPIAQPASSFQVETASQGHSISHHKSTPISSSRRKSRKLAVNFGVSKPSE
UniProt Q9ULU4: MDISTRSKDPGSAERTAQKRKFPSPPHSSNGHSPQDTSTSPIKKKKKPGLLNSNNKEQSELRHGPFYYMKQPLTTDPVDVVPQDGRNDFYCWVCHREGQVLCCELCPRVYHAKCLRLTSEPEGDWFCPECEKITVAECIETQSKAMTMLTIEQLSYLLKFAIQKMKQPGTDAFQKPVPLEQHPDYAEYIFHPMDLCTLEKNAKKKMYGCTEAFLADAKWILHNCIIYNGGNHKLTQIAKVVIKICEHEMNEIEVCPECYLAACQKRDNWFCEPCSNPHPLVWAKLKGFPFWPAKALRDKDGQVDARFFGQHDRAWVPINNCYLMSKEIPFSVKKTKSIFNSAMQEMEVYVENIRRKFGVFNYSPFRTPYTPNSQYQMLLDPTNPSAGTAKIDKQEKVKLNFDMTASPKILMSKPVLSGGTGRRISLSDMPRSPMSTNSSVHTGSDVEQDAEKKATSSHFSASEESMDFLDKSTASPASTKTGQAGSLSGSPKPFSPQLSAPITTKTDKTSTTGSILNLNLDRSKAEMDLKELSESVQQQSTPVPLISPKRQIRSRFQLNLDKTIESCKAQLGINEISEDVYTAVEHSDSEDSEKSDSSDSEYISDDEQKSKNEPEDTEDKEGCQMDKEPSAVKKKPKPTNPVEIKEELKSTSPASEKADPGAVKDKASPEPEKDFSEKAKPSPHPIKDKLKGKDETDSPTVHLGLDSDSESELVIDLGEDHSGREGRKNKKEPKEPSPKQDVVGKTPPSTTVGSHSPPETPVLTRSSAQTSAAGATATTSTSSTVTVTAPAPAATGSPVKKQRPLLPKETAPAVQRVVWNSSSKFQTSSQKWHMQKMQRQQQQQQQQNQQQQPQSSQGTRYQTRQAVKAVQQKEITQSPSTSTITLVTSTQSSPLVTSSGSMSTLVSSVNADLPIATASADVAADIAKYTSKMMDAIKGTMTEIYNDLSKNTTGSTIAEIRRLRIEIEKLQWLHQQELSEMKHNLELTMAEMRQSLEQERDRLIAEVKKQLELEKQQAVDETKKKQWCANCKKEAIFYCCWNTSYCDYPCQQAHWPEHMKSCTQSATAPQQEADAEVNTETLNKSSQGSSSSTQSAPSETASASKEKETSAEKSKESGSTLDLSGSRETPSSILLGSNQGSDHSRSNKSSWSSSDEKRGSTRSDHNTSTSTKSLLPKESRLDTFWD
UniProt Q96GR4: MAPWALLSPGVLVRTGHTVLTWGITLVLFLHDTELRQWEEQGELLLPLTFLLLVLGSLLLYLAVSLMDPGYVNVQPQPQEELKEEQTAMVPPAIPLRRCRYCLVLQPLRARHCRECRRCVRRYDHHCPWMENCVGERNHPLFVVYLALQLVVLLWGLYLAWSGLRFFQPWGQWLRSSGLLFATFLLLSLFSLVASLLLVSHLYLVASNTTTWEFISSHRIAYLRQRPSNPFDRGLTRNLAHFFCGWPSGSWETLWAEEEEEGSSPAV

The list shows a part of the results.

Compound in one assay: CC1=C(C=C(C=C1)NC(=O)C2=CC(=CC=C2)C(C)(C)C#N)NC3=CC4=C(C=C3)N=CN(C4=O)C
Nature of the assay: log2 fold change, soluble protein after heating vs DMSO (PISA); higher = thermal stabilisation; K562 cells, 10 uM, 30 min; active = over 0.2 and 3.5 SD of the protein, either way, in both replicates (recomputed). The procedure, abridged: (§1)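 Soluble protein was quantified by TMTpro 16plex LC-MS/MS after channel sums were equalised. It was obtained as the supernatant after 21,000xg for 90 min from pooled aliquots of K562 cells (2×10^6 cells/mL, 10 μM compound, 30 min) heated for 3 min across 48°C-58°C and extracted in PBS with 0.5% NP-40 at 4°C. Thermal stability values are relative to control samples and come from duplicates. They are given as log2 fold changes.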
In the case of ZBTB17 isoform 2 (UniProt Q13105), the log2 fold change was inactive: 0.018.

In the case of ZDHHC16 (UniProt Q969W1), the log2 fold change is inactive: -0.222.

Regarding ZBTB7B isoform 2 (UniProt O15156), the log2 fold change is inactive: -0.046.

For the target ZCCHC17 (UniProt Q9NP64), the log2 fold change is inactive: -0.065.

Compound in the next assay: CC1=C(C=C(C=C1)NC(=O)C2=CC(=CC=C2)N(C)C)NC(=O)C3=CC=C(C=C3)O
The assay is described as above. The procedure, abridged: as §1
ZFYVE21 isoform 2 (UniProt Q9BQ24): the log2 fold change was inactive: 0.088.

For YBEY (UniProt P58557), the log2 fold change was inactive: -0.005.

Turning to XPA (UniProt P23025), the log2 fold change is inactive: 0.01.

Consider ZBTB3 (UniProt Q9H5J0), for which the log2 fold change is inactive: 0.

Regarding ZDHHC7 isoform 2 (UniProt Q9NXF8), the log2 fold change was inactive: 0.014.

On to ZKSCAN4 (UniProt Q969J2), for which the log2 fold change is inactive: -0.123.

In the case of ZBTB14 (UniProt O43829), the log2 fold change is inactive: -0.054.

In the case of XPC (UniProt Q01831), the log2 fold change was inactive: 0.148.

Consider ZDHHC9 (UniProt Q9Y397), for which the log2 fold change was inactive: -0.07.

For the target XP32 (UniProt Q5T750), the log2 fold change was inactive: 0.01.

In the case of ZC2HC1A (UniProt Q96GY0), the log2 fold change was inactive: 0.095.

For YIF1A (UniProt O95070), the log2 fold change is inactive: -0.079.

Take YWHAZ (UniProt E7ESK7): the log2 fold change is inactive: 0.082.

For ZC3H13 (UniProt Q5T200), the log2 fold change is inactive: 0.428.

Turning to YES1 (UniProt P07947), the log2 fold change was inactive: 0.037.

With ZNF22 (UniProt P17026), the log2 fold change is inactive: -0.076.

Regarding XRN1 (UniProt Q8IZH2), the log2 fold change is inactive: 0.042.

Turning to YIPF2 (UniProt Q9BWQ6), the log2 fold change is inactive: 0.005.

Compound in another assay: CC1=CC=C(C=C1)SC2=C3C=C(SC3=CN=C2)C(=O)N
The assay is described as above. The procedure, abridged: as §1
Take ZMYM2 (UniProt Q9UBW7): the log2 fold change is inactive: -0.019.

Take XPA (UniProt P23025): the log2 fold change is inactive: 0.086.

As for ZBTB3 (UniProt Q9H5J0), the log2 fold change was inactive: -0.046.

Turning to ZDHHC7 isoform 2 (UniProt Q9NXF8), the log2 fold change is inactive: -0.138.

Turning to ZMYND8 isoform 19 (UniProt Q9ULU4), the log2 fold change is inactive: 0.022.

On to XPC (UniProt Q01831), for which the log2 fold change was inactive: 0.037.

As to ZDHHC12 isoform 3 (UniProt Q96GR4), the log2 fold change was inactive: -0.012.

In the case of ZFYVE28 (UniProt Q9HCC9), the log2 fold change is inactive: -0.043.

Consider ZC2HC1A (UniProt Q96GY0), for which the log2 fold change was inactive: 0.016.

For the target YIF1A (UniProt O95070), the log2 fold change is inactive: -0.162.

For YWHAZ (UniProt E7ESK7), the log2 fold change is inactive: -0.019.

In the case of ZDHHC6 (UniProt Q9H6R6), the log2 fold change was inactive: 0.034.

With ZC3H13 (UniProt Q5T200), the log2 fold change was inactive: 0.17.

For XRCC2 (UniProt O43543), the log2 fold change is inactive: 0.075.

As to YES1 (UniProt P07947), the log2 fold change is inactive: 0.03.

On to ZC3H11A (UniProt O75152), for which the log2 fold change was inactive: -0.03.

Compound in another assay: CC1=NC(=CC=C1)C2=C(N=C(N2)C(C)(C)C)C3=CC4=NC=CN=C4C=C3
The description is as above. The procedure, abridged:
as §1
Turning to ZMYM2 (UniProt Q9UBW7), the log2 fold change was inactive: -0.025.

As to YTHDF1 (UniProt Q9BYJ9), the log2 fold change was inactive: 0.107.

With XYLT2 (UniProt Q9H1B5), the log2 fold change is inactive: 0.017.

ZBTB3 (UniProt Q9H5J0): the log2 fold change is inactive: 0.08.

Turning to ZDHHC7 isoform 2 (UniProt Q9NXF8), the log2 fold change is inactive: 0.335.

For ZMYND8 isoform 19 (UniProt Q9ULU4), the log2 fold change is inactive: -0.093.

XPC (UniProt Q01831): the log2 fold change is inactive: -0.036.

With ZDHHC12 isoform 3 (UniProt Q96GR4), the log2 fold change is inactive: -0.082.

Turning to ZFYVE28 (UniProt Q9HCC9), the log2 fold change is inactive: 0.079.

Turning to ZC2HC1A (UniProt Q96GY0), the log2 fold change is inactive: -0.148.

In the case of YIF1A (UniProt O95070), the log2 fold change was inactive: -0.061.

Take YWHAZ (UniProt E7ESK7): the log2 fold change is inactive: -0.064.

In the case of YTHDC2 (UniProt Q9H6S0), the log2 fold change is inactive: -0.119.

As for ZDHHC8 isoform 3 (UniProt Q9ULC8), the log2 fold change was inactive: -0.03.

YBX1 (UniProt C9J5V9): the log2 fold change is inactive: -0.03.

As to ZC3H13 (UniProt Q5T200), the log2 fold change is inactive: -0.039.

With YES1 (UniProt P07947), the log2 fold change is inactive: 0.008.

In the case of ZNF22 (UniProt P17026), the log2 fold change was inactive: -0.274.

On to XRN1 (UniProt Q8IZH2), for which the log2 fold change is inactive: -0.311.

Compound in another assay: CCCCN(Cc1ccc(C(=O)NO)cc1)C(=O)Nc1ccccc1 [Nexturastat A]
The description is as above. The procedure, abridged:
as §1
On to YTHDF1 (UniProt Q9BYJ9), for which the log2 fold change was inactive: 0.341.

Take XYLT2 (UniProt Q9H1B5): the log2 fold change was inactive: -0.023.

For XPA (UniProt P23025), the log2 fold change is inactive: 0.181.

Regarding ZDHHC7 isoform 2 (UniProt Q9NXF8), the log2 fold change was inactive: 0.052.

On to ZMYND8 isoform 19 (UniProt Q9ULU4), for which the log2 fold change is inactive: 0.011.

XPC (UniProt Q01831): the log2 fold change was inactive: 0.269.

As for XYLB (UniProt O75191), the log2 fold change is inactive: 0.19.

For ZC2HC1A (UniProt Q96GY0), the log2 fold change was inactive: 0.069.

As to YWHAZ (UniProt E7ESK7), the log2 fold change was inactive: 0.34.

With YTHDC2 (UniProt Q9H6S0), the log2 fold change was inactive: 0.209.

In the case of ZDHHC6 (UniProt Q9H6R6), the log2 fold change was inactive: -0.06.

For ZDHHC8 isoform 3 (UniProt Q9ULC8), the log2 fold change is inactive: -0.151.

Consider ZC3H13 (UniProt Q5T200), for which the log2 fold change is inactive: 0.247.

As for XRCC2 (UniProt O43543), the log2 fold change was inactive: 0.036.

YES1 (UniProt P07947): the log2 fold change was inactive: 0.142.

XRN1 (UniProt Q8IZH2): the log2 fold change is inactive: 0.003.

In the case of YIPF2 (UniProt Q9BWQ6), the log2 fold change was inactive: -0.034.
